Source: patent publication US9605013B2, “Derivatives of hemin with antibacterial and antiviral activity” (OBSCHESTVO S OGRANICHENNOI OTVETSTVENNOSTIYU …, priority 2011, dated 2017)
Some entries share one result that the patent states for a list of compounds.

Test system: Enterococcus faecalis BKM B-871
Experiment: Antibacterial activity, serial dilutions in liquid MH medium
Format: cell-based
Conditions: 20 h, 37° C., 100% growth inhibition
Experimental: The antibacterial activity of the compounds was determined against strains of gram-positive bacteria such as Staphylococcus aureus 209P, Enterococcus faecalis BKM B-871, Micrococcus luteus BKM Ac-2230, Bacillus subtilis BKM B-501, and gram-negative bacteria such as Pseudomonas aeruginosa PAO1 and Escherichia coli KM MGU C-600. BKM strains were acquired from the All-Russia Collection of Microorganisms at the Institute for Biochemistry and Physiology of Microorganisms, Russian Academy of Sciences. […]
MIC was quantified by inhibiting culture growth in a liquid medium with serial dilutions of compounds using a modified procedure [Amsterdam, D., 1966. […]
All tested compounds absorb light at 595 nm, a wavelength used for evaluating bacterial culture growth. […] Bacterial growth inhibition (GI) as percentage after 20 hours of incubating cells with compounds was derived from the optical density (A) measured in every well at a wavelength of 595 nm using the equation: GIi=[(Act−Ac0)−(Ait−Ai0)]×100/(Act−Ac0), (1) wherein the subscripts have the following meanings: i denotes the well number, c denotes a control well with bacteria whereto the tested compound is not inserted, 0 refers to the measurement taken immediately once the tested compound was inserted to the well, and t refers to the measurement taken 20 hours after the compound was inserted. […]

C=CC1=C(C)c2cc3[n-]c(cc4[n-]c(cc5nc(cc1n2)C(C)=C5C=C)c(C)c4CCC(=O)N[C@@H](CCCNC(=N)N)C(N)=O)c(CCC(=O)N[C@@H](CCCNC(=N)N)C(N)=O)c3C.[Cl-].[Fe+3] [II, 6,7-bis-(Amide N^α-Arginyl)-Protohemin (IX)]
MIC: < 7 µM
